Source: EP0617288B1, “Long emission wavelength chemiluminescent compounds and their use in test assays” (Novartis AG, priority 1993, dated 1994)

Test: Light emitting efficiency on Berthold luminometer (MLA-I) with BG-38 filter
Assay type: physicochemical
Settings: for Total Counts (RLU's)/2sec amount flashed (pg): 2 seconds integration, mean of duplicate; for RLU's/mol (1 x E20): counts/mol calculated from quantity of 2.5 pg

Molecule | Total Counts (RLU's)/2sec amount flashed (pg) (0.25 pg flashed) | Total Counts (RLU's)/2sec amount flashed (pg) (2.5 pg flashed) | Total Counts (RLU's)/2sec amount flashed (pg) (25.0 pg flashed) | RLU's/mol (1 x E20)
COc1ccc2c(c1)c(C(=O)Oc1c(C)cc(C(=O)ON3C(=O)CCC3=O)cc1C)c1cc3ccccc3cc1[n+]2CCS(=O)(=O)[O-] [2-MeO-NSE-LEAE-NHS, (2,6-Dimethyl-4-N-succinimidyloxycarbonyl)phenyl 2-Methoxy-5-(2-sulfoethyl)-benz[b]acridinium-12-carboxylate] | 14,853 RLU's | 145,403 RLU's | 1,503,100 RLU's | 0.38 RLU's/mol (1 x E20)
COc1ccc2c(C(=O)Oc3c(C)cc(C(=O)OCc4ccccc4)cc3C)c3ccccc3[n+](C)c2c1 [3-MeO-DMAE-Bz, (4-Benzyloxycarbonyl-2,6-dimethyl)phenyl 3-Methoxy-10-methyl-acridinium-9-carboxylate Fluorosulfonate, reference compound] |  | 54,760 RLU's | 523,380 RLU's | 0.13 RLU's/mol (1 x E20)
COc1ccc(N(C(=O)c2c3ccccc3[n+](C)c3cc4ccccc4cc23)S(=O)(=O)c2cccc(C(=O)OCc3ccccc3)c2)cc1 [LEAC-Bz, N-(4-Methoxyphenyl)-N-[3-(benzyloxycarbonyl)phenylsulfonyl] 5-Methyl-benz[b]acridinium-12-carboxamide Fluorosulfonate] | 79,873 RLU's | 767,553 RLU's | 6,312,163 RLU's | 2.4 RLU's/mol (1 x E20)
Cc1cc(C(=O)OCc2ccccc2)cc(C)c1OC(=O)c1c2ccccc2[n+](C)c2cc3ccccc3cc12 [LEAE-Bz, (4-Benzyloxycarbonyl-2,6-dimethyl)phenyl 5-Methyl-benz[b]acridinium-12-carboxylate Fluorosulfonate] | 105,857 RLU's | 1,037,943 RLU's | 9,037,063 RLU's | 2.6 RLU's/mol (1 x E20)
Cc1cc(C(=O)OCc2ccccc2)cc(C)c1OC(=O)c1c2ccccc2[n+](C)c2ccc3ccccc3c12 [ABAC, (4-Benzyloxycarbonyl-2,6-dimethyl)phenyl 5-methyl-benz[a]acridinium-12-carboxylate methosulfate, reference compound] |  | 23,600 RLU's | 143,400 RLU's | 0.058 RLU's/mol (1 x E20)
(4-Benzyloxycarbonyl-2,6-diisopropyl)phenyl 10-Methyl-acridinium-9-carboxylate Fluorosulfonate [DIPAE-Bz, reference compound] | 82,115 RLU's | 845,660 RLU's | 6,041,380 RLU's | 2.1 RLU's/mol (1 x E20)
COc1ccc2c(c1)c(C(=O)Oc1c(C)cc(C(=O)OCc3ccccc3)cc1C)c1cc3ccccc3cc1[n+]2C [2-MeO-LEAE-Bz, (4-Benzyloxycarbonyl-2,6-dimethyl)phenyl 2-Methoxy-5-methyl-benz[b]acridinium-12-carboxylate Fluorosulfonate] | 27,810 RLU's | 223,995 RLU's | 2,140,890 RLU's | 0.59 RLU's/mol (1 x E20)
CC(C)c1cc(C(=O)OCc2ccccc2)cc(C(C)C)c1OC(=O)c1c2ccccc2[n+](C)c2cc3ccccc3cc12 [DIP-LEAE-Bz, (4-Benzyloxycarbonyl-2,6-diisopropyl)phenyl 5-Methyl-benz[b]acridinium-12-carboxylate Fluorosulfonate] | 29,930 RLU's | 240,610 RLU's | 2,413,320 RLU's | 0.66 RLU's/mol (1 x E20)
Cc1cc(C(=O)OCc2ccccc2)cc(C)c1OC(=O)c1c2ccccc2[n+](CCCS(=O)(=O)[O-])c2cc3ccccc3cc12 [NSP-LEAE-Bz, (4-Benzyloxycarbonyl-2,6-dimethyl)phenyl 5-(3-Sulfopropyl)-benz[b]acridinium-12-carboxylate] | 22,715 RLU's | 212,485 RLU's | 2,250,520 RLU's | 0.54 RLU's/mol (1 x E20)
CCOc1ccc2c(C(=O)Oc3c(C)cc(C(=O)OCc4ccccc4)cc3C)c3cc4ccccc4cc3[n+](C)c2c1 [3-EtO-LEAE-Bz, (4-Benzyloxycarbonyl-2,6-dimethyl)phenyl 3-Ethoxy-5-methyl-benz[b]acridinium-12-carboxylate Fluorosulfonate] | 93,635 RLU's | 883,785 RLU's | 6,364,935 RLU's | 2.4 RLU's/mol (1 x E20)
